# Laboratory results from paper PMC4476799, “Englerin A Agonizes the TRPC4/C5 Cation Channels to Inhibit Tumor Cell Line Proliferation” (PLoS ONE, 2015).
# This continues a long series; more values of the same kind are listed elsewhere.
# Test system: cancer cell lines from the cancer cell line encyclopedia (CCLE)
# Test: Cell line profiling (CLiP) proliferation experiment
# Assay type: cell-based
# Parameters: ACTIVITY_AREA: scale not given here; AMAX: unit not given here
# Procedure: Compound profiling experiment and data analysis was performed as previously described. Data was imported and plotted using the Tibco Spotfire DXP application. Lines were categorized as sensitive, intermediate and refractory as follows: Amax<-40 & Inflection Point <2 ~ Sensitive, Amax>-20 & Inflection Point >10 ~ Refractory, all else were called Intermediate. Cancer Cell line HG-U133 Plus 2 data was processed and normalized as described. […] Five sets of refractory cell lines were generated from the pool of refractory cell lines trying to match the lineage composition of the set of sensitive cell lines. The limma package was used as previously described to perform the statistical comparison.
# [1] = Ki-JK (haematopoietic_and_lymphoid_tissue)
# [2] = L-363 (haematopoietic_and_lymphoid_tissue)
# [3] = LAMA-84 (haematopoietic_and_lymphoid_tissue)
# [4] = LN-229 (central_nervous_system)
# [5] = LP-1 (haematopoietic_and_lymphoid_tissue)
# [6] = Loucy (haematopoietic_and_lymphoid_tissue)
# [7] = MAVER-1 (haematopoietic_and_lymphoid_tissue)
# [8] = MC116 (haematopoietic_and_lymphoid_tissue)
# [9] = MEC-1 (haematopoietic_and_lymphoid_tissue)
# [10] = MEG-01 (haematopoietic_and_lymphoid_tissue)
# [11] = MOLM-13 (haematopoietic_and_lymphoid_tissue)
# [12] = NCI-H82, lung, small_cell_carcinoma
compound,measurement,setting,value
CC(C)[C@@]12C[C@@H](O)[C@@](C)(O1)[C@@H]1CC[C@@H](C)[C@H]1[C@@H]2OC(=O)/C=C/c1ccccc1 [Englerin B],ACTIVITY_AREA,[1],33.09
same,AMAX,[1],-86.88
same,RESPONSE,[1],INTERMEDIATE
same,ACTIVITY_AREA,L3.3 (pancreas),19.82
same,AMAX,L3.3 (pancreas),-1.42
same,RESPONSE,L3.3 (pancreas),REFRACTORY
same,ACTIVITY_AREA,[2],30.79
same,AMAX,[2],-76.39
same,RESPONSE,[2],INTERMEDIATE
same,ACTIVITY_AREA,[3],21.65
same,AMAX,[3],-47.02
same,RESPONSE,[3],INTERMEDIATE
same,ACTIVITY_AREA,LAMA-84 cells,21.65
same,AMAX,LAMA-84 cells,-47.02
same,RESPONSE,LAMA-84 cells,INTERMEDIATE
same,ACTIVITY_AREA,LC-1/sq-SF (lung),17.23
same,AMAX,LC-1/sq-SF (lung),-27.78
same,RESPONSE,LC-1/sq-SF (lung),INTERMEDIATE
same,ACTIVITY_AREA,LCLC-97TM1 (lung),12.1
same,AMAX,LCLC-97TM1 (lung),-48.44
same,RESPONSE,LCLC-97TM1 (lung),INTERMEDIATE
same,ACTIVITY_AREA,LCLC-97TM1 cells,12.1
same,AMAX,LCLC-97TM1 cells,-48.44
same,RESPONSE,LCLC-97TM1 cells,INTERMEDIATE
same,ACTIVITY_AREA,LCLC-103H (lung),35.85
same,AMAX,LCLC-103H (lung),-43.37
same,RESPONSE,LCLC-103H (lung),INTERMEDIATE
same,ACTIVITY_AREA,LCLC-103H cells,35.85
same,AMAX,LCLC-103H cells,-43.37
same,RESPONSE,LCLC-103H cells,INTERMEDIATE
same,ACTIVITY_AREA,LK-2 (lung),22.45
same,AMAX,LK-2 (lung),0.44
same,RESPONSE,LK-2 (lung),REFRACTORY
same,ACTIVITY_AREA,LMSU (stomach),54.83
same,AMAX,LMSU (stomach),-64.58
same,RESPONSE,LMSU (stomach),INTERMEDIATE
same,ACTIVITY_AREA,LN-18 (central_nervous_system),54
same,AMAX,LN-18 (central_nervous_system),-84.56
same,RESPONSE,LN-18 (central_nervous_system),INTERMEDIATE
same,ACTIVITY_AREA,LN-18 cells,54
same,AMAX,LN-18 cells,-84.56
same,RESPONSE,LN-18 cells,INTERMEDIATE
same,ACTIVITY_AREA,[4],26.55
same,AMAX,[4],-27.43
same,RESPONSE,[4],INTERMEDIATE
same,ACTIVITY_AREA,LOX IMVI (skin),48.52
same,AMAX,LOX IMVI (skin),-28.32
same,RESPONSE,LOX IMVI (skin),INTERMEDIATE
same,ACTIVITY_AREA,LOX IMVI cells,48.52
same,AMAX,LOX IMVI cells,-28.32
same,RESPONSE,LOX IMVI cells,INTERMEDIATE
same,ACTIVITY_AREA,[5],34.18
same,AMAX,[5],-71.29
same,RESPONSE,[5],INTERMEDIATE
same,ACTIVITY_AREA,LP-1 cells,34.18
same,AMAX,LP-1 cells,-71.29
same,RESPONSE,LP-1 cells,INTERMEDIATE
same,ACTIVITY_AREA,LP-6 (soft_tissue),80.63
same,AMAX,LP-6 (soft_tissue),-44.12
same,RESPONSE,LP-6 (soft_tissue),INTERMEDIATE
same,ACTIVITY_AREA,LS 180 (large_intestine),24.89
same,AMAX,LS 180 (large_intestine),-35.97
same,RESPONSE,LS 180 (large_intestine),INTERMEDIATE
same,ACTIVITY_AREA,LS 180 cells,24.89
same,AMAX,LS 180 cells,-35.97
same,RESPONSE,LS 180 cells,INTERMEDIATE
same,ACTIVITY_AREA,LS411N (large_intestine),74.86
same,AMAX,LS411N (large_intestine),-68.27
same,RESPONSE,LS411N (large_intestine),INTERMEDIATE
same,ACTIVITY_AREA,LU65 (lung),30.29
same,AMAX,LU65 (lung),-10.51
same,RESPONSE,LU65 (lung),REFRACTORY
same,ACTIVITY_AREA,LU99 (lung),20.18
same,AMAX,LU99 (lung),-51.2
same,RESPONSE,LU99 (lung),INTERMEDIATE
same,ACTIVITY_AREA,LXF-289 (lung),29.24
same,AMAX,LXF-289 (lung),-45.81
same,RESPONSE,LXF-289 (lung),INTERMEDIATE
same,ACTIVITY_AREA,Li-7 (liver),9.97
same,AMAX,Li-7 (liver),-40.35
same,RESPONSE,Li-7 (liver),INTERMEDIATE
same,ACTIVITY_AREA,LoVo (large_intestine),22.43
same,AMAX,LoVo (large_intestine),-43.58
same,RESPONSE,LoVo (large_intestine),INTERMEDIATE
same,ACTIVITY_AREA,[6],40.46
same,AMAX,[6],-77.08
same,RESPONSE,[6],INTERMEDIATE
same,ACTIVITY_AREA,[7],70.86
same,AMAX,[7],-71.85
same,RESPONSE,[7],INTERMEDIATE
same,ACTIVITY_AREA,MB 157 (breast),43.72
same,AMAX,MB 157 (breast),-47.98
same,RESPONSE,MB 157 (breast),INTERMEDIATE
same,ACTIVITY_AREA,[8],38.31
same,AMAX,[8],-98.12
same,RESPONSE,[8],INTERMEDIATE
same,ACTIVITY_AREA,MCAS (ovary),25.17
same,AMAX,MCAS (ovary),-38.75
same,RESPONSE,MCAS (ovary),INTERMEDIATE
same,ACTIVITY_AREA,MCF7 (breast),67.04
same,AMAX,MCF7 (breast),-63.43
same,RESPONSE,MCF7 (breast),INTERMEDIATE
same,ACTIVITY_AREA,MCF7 cells,67.04
same,AMAX,MCF7 cells,-63.43
same,RESPONSE,MCF7 cells,INTERMEDIATE
same,ACTIVITY_AREA,MDA-MB-175-VII (breast),21.43
same,AMAX,MDA-MB-175-VII (breast),-47.38
same,RESPONSE,MDA-MB-175-VII (breast),INTERMEDIATE
same,ACTIVITY_AREA,MDA-MB-231 (breast),47.93
same,AMAX,MDA-MB-231 (breast),-44.39
same,RESPONSE,MDA-MB-231 (breast),INTERMEDIATE
same,ACTIVITY_AREA,MDA-MB-415 (breast),19.79
same,AMAX,MDA-MB-415 (breast),-38.73
same,RESPONSE,MDA-MB-415 (breast),INTERMEDIATE
same,ACTIVITY_AREA,MDA-MB-436 (breast),23.24
same,AMAX,MDA-MB-436 (breast),-4.48
same,RESPONSE,MDA-MB-436 (breast),REFRACTORY
same,ACTIVITY_AREA,MDA-MB-453 (breast),54.06
same,AMAX,MDA-MB-453 (breast),-63.93
same,RESPONSE,MDA-MB-453 (breast),INTERMEDIATE
same,ACTIVITY_AREA,MDA-MB-468 (breast),65.45
same,AMAX,MDA-MB-468 (breast),-47.74
same,RESPONSE,MDA-MB-468 (breast),INTERMEDIATE
same,ACTIVITY_AREA,MDA-MB-468 cells,65.45
same,AMAX,MDA-MB-468 cells,-47.74
same,RESPONSE,MDA-MB-468 cells,INTERMEDIATE
same,ACTIVITY_AREA,MDST8 (large_intestine),21.88
same,AMAX,MDST8 (large_intestine),-37.05
same,RESPONSE,MDST8 (large_intestine),INTERMEDIATE
same,ACTIVITY_AREA,[9],41.33
same,AMAX,[9],-58.42
same,RESPONSE,[9],INTERMEDIATE
same,ACTIVITY_AREA,[10],20.16
same,AMAX,[10],-51.13
same,RESPONSE,[10],INTERMEDIATE
same,ACTIVITY_AREA,MEL-JUSO (skin),85.15
same,AMAX,MEL-JUSO (skin),-17.8
same,RESPONSE,MEL-JUSO (skin),REFRACTORY
same,ACTIVITY_AREA,MFE-296 (endometrium),30.54
same,AMAX,MFE-296 (endometrium),-63.15
same,RESPONSE,MFE-296 (endometrium),INTERMEDIATE
same,ACTIVITY_AREA,MIA PaCa-2 (pancreas),21.84
same,AMAX,MIA PaCa-2 (pancreas),-45.2
same,RESPONSE,MIA PaCa-2 (pancreas),INTERMEDIATE
same,ACTIVITY_AREA,MKN7 (stomach),17.73
same,AMAX,MKN7 (stomach),-33.53
same,RESPONSE,MKN7 (stomach),INTERMEDIATE
same,ACTIVITY_AREA,MKN-45 (stomach),62.13
same,AMAX,MKN-45 (stomach),-32.27
same,RESPONSE,MKN-45 (stomach),INTERMEDIATE
same,ACTIVITY_AREA,[11],49.89
same,AMAX,[11],-90.98
same,RESPONSE,[11],INTERMEDIATE
same,ACTIVITY_AREA,MV-4-11 cells,65.43
same,AMAX,MV-4-11 cells,-93.67
same,RESPONSE,MV-4-11 cells,INTERMEDIATE
same,ACTIVITY_AREA,Malme-3M (skin),11.72
same,AMAX,Malme-3M (skin),0.96
same,RESPONSE,Malme-3M (skin),REFRACTORY
same,ACTIVITY_AREA,Malme-3M cells,11.72
same,AMAX,Malme-3M cells,0.96
same,RESPONSE,Malme-3M cells,REFRACTORY
same,ACTIVITY_AREA,"NCI-H28, pleura, NS",68.28
same,AMAX,"NCI-H28, pleura, NS",-73.22
same,RESPONSE,"NCI-H28, pleura, NS",INTERMEDIATE
same,ACTIVITY_AREA,[12],23.32
same,AMAX,[12],-87.52
same,RESPONSE,[12],INTERMEDIATE
same,ACTIVITY_AREA,NCI-H82 cells,23.32
same,AMAX,NCI-H82 cells,-87.52
same,RESPONSE,NCI-H82 cells,INTERMEDIATE
same,ACTIVITY_AREA,NCI-H146 cells,25.77
